Our source for the binding values is paper PMC11189428.

Protein sequences, listed by entry. Tags and fused reporters are not part of them. Residues count along the entry.
UniProt P38647, residues 47-679: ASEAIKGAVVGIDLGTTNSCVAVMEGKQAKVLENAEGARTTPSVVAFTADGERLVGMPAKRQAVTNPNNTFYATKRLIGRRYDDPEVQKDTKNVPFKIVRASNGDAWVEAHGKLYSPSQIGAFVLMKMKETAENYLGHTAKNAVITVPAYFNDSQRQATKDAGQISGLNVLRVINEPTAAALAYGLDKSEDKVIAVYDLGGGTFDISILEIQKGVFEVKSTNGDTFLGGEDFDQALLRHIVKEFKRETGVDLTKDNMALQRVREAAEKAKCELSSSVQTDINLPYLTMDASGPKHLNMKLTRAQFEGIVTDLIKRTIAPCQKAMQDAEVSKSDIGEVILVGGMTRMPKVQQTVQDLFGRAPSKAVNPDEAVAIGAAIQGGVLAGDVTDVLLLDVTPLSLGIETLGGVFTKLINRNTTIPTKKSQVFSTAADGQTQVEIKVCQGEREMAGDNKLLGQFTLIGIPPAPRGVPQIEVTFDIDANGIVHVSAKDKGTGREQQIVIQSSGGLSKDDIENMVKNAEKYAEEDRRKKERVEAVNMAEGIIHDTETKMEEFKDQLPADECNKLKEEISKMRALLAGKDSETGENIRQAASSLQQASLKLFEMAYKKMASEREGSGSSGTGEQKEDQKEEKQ
UniProt P70227: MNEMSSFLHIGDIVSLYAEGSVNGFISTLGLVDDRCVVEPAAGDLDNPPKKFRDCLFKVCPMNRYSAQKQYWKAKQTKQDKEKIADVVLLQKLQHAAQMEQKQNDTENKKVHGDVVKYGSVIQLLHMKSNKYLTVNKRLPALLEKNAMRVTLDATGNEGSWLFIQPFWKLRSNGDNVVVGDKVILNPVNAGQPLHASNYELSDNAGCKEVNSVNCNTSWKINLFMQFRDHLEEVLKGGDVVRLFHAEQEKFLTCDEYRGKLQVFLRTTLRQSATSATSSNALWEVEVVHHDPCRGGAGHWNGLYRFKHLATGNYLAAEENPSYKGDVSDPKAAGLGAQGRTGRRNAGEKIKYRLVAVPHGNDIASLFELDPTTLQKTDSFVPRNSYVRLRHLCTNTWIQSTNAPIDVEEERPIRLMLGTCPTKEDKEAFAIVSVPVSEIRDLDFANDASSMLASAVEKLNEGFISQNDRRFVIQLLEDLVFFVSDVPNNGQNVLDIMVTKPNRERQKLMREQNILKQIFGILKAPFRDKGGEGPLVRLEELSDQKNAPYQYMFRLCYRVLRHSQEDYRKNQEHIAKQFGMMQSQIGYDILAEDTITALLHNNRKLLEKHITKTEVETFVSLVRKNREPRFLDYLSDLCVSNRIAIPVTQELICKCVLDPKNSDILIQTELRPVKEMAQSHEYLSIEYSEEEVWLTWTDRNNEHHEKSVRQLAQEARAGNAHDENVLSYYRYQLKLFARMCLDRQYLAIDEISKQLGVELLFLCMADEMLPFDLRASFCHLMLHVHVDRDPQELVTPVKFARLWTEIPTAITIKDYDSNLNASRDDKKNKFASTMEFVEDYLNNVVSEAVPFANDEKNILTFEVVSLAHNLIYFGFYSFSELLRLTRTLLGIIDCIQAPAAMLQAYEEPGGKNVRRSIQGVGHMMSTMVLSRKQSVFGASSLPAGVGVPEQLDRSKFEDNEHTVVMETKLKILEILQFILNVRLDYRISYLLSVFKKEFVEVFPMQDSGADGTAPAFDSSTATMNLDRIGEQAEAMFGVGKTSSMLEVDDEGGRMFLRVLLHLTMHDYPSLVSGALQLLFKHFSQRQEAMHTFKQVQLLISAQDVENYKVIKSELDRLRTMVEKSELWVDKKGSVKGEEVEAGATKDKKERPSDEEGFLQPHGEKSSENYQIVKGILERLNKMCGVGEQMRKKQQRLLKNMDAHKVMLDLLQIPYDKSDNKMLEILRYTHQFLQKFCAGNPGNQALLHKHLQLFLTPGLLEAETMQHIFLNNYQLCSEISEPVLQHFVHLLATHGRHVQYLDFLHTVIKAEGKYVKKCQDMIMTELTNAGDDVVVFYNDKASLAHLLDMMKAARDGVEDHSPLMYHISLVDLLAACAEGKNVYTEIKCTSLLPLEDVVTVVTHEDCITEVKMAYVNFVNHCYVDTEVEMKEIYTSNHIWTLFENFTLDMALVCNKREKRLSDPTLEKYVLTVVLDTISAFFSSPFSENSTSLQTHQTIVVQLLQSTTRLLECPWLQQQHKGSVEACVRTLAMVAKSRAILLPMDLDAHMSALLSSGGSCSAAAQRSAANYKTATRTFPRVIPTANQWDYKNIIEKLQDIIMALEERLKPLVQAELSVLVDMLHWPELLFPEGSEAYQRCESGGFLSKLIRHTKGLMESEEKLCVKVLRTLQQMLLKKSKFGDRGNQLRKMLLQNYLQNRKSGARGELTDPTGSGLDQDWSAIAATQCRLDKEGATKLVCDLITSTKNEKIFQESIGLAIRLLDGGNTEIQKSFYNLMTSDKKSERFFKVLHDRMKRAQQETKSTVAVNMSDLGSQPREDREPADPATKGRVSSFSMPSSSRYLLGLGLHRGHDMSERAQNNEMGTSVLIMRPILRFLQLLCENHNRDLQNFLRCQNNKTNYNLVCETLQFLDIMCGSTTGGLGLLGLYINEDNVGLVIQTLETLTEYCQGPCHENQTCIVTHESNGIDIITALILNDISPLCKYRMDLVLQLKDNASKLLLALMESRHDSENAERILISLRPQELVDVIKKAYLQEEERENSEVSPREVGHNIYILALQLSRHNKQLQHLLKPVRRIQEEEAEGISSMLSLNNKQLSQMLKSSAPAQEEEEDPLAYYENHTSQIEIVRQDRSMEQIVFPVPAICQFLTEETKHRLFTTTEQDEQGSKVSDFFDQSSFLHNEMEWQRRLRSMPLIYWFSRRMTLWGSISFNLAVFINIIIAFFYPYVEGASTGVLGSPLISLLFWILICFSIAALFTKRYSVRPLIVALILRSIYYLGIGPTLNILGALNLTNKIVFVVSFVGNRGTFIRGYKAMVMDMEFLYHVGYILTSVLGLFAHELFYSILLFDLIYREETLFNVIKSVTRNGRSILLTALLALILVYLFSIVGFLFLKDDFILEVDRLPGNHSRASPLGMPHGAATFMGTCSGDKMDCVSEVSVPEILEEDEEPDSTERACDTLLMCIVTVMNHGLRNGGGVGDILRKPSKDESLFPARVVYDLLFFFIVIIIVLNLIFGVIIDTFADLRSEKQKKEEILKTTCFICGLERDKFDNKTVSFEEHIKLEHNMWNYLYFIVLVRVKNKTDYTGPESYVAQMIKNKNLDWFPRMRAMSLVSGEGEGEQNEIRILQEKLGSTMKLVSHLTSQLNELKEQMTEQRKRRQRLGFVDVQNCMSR

Results are given in words; binding and its absence hold for the method and conditions named. In cells and extracts the contact can be indirect. Some results given as binding are weak or reduced against the parent protein; the word gives no strength.

In assay [1] the target is glucose-regulated protein 75 (mouse (endogenous in mouse hippocampus, primary microglia and BV2 cells)) (UniProt P38647). Description: proximity ligation; in situ Duolink PLA on 35-um frozen mouse brain sections (hippocampal DG), primary antibodies to IP3R-3, GRP75 and VDAC1 1:200 overnight at 4 C; control and CSDS mice, Iba-1 staining for microglia.
The target is the same in assay [2]. As to the kind of experiment: proximity ligation; Duolink PLA on cells grown on coverslips, fixed with 4% paraformaldehyde, 0.1% Triton X-100; primary microglia (and BV2 cells) untreated or treated with thapsigargin (1 uM, 12 h) or ATP (1 mM, 2 h).

As to “inositol 1,4,5-triphosphate receptor 3 (from UniProt P70227 1-2670)”, the binding result in assay [1] and in assay [2] was “binds” in each case.
